Test results as given in PMC7115168.
These are yes or no findings as the source states them, for the method shown. In cells and extracts the contact can be indirect. Some results given as binding are weak or reduced against the parent protein; the word gives no strength.

Target: T1, Peroxisome proliferator-activated receptor γ coactivator 1α (human (endogenous in MHCC-97H and HCC-LM3)) (UniProt Q9UBK2)
T1 sequence: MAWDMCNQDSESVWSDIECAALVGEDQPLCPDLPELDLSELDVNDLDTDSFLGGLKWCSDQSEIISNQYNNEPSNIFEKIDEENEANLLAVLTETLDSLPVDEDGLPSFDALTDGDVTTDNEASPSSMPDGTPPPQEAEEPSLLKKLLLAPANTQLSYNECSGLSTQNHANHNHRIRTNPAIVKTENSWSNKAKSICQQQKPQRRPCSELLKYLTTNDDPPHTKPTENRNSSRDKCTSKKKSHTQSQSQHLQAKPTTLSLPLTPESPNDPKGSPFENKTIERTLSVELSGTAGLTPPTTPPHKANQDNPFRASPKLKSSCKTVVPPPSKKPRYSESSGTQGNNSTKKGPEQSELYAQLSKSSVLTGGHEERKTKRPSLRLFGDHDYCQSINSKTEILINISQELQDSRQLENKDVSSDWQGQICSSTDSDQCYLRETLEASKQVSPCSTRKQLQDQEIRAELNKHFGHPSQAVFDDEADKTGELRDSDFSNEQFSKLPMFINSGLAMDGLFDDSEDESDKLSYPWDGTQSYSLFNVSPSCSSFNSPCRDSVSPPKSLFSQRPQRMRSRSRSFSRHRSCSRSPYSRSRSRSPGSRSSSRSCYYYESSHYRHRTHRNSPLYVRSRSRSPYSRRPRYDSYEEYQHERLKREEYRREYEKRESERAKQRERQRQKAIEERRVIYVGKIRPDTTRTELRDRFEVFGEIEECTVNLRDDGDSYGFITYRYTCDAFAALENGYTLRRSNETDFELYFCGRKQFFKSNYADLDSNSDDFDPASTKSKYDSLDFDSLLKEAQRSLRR
Assay: co-IP; endogenous IP from whole cell lysates of MHCC-97H and HCC-LM3 cells; primary antibodies and protein A/G Dynabeads at 4°C overnight; input, IgG negative control and IP analysed by Western blotting

B1: SET8 (protein, UniProt Q9NQR1 1-393)
chain: MGEGGAAAALVAAAAAAAAAAAAVVAGQRRRRLGRRARCHGPGRAAGGKMSKPCAVEAAAAAVAATAPGPEMVERRGPGRPRTDGENVFTGQSKIYSYMSPNKCSGMRFPLQEENSVTHHEVKCQGKPLAGIYRKREEKRNAGNAVRSAMKSEEQKIKDARKGPLVPFPNQKSEAAEPPKTPPSSCDSTNAAIAKQALKKPIKGKQAPRKKAQGKTQQNRKLTDFYPVRRSSRKSKAELQSEERKRIDELIESGKEEGMKIDLIDGKGRGVIATKQFSRGDFVVEYHGDLIEITDAKKREALYAQDPSTGCYMYYFQYLSKTYCVDATRETNRLGRLINHSKCGNCQTKLHDIDGVPHLILIASRDIAAGEELLYDYGDRSKASIEAHPWLKH
In the case of B1, the binding is reported as “binds”.
